Source: PubChem BioAssay AID686937 (Drosophila RNAi Screening Center, 2013)
Screen: 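Genes whose loss weakens secretory pathway function in fly cells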 (primary screen). System: Drosophila S2 cells expressing secreted horseradish peroxidase. Reagents: long dsRNA against Drosophila genes. Timing: about 5.5 days (5 days dsRNA, then 12 h reporter induction). Challenge: reporter expression induced after 5 days of dsRNA, read 12 h later; inducer not stated. Measurement: 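Chemiluminescent measurement of peroxidase in the medium 12 h after reporter induction, following 5 days of dsRNA, given as a z-score per plate; higher means more secretion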. Direction: z-score: higher = more reporter secreted into medium.
In all, the deposit lists about 23,000 reagents; below is a random part of those that have a named target and a result. 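Reduced-secretion tags in replicate 1 do not always agree with the z-scores; no criterion for assigning the tags was given.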 A plus sign joins genes that one reagent is predicted to hit. Not stated in the record: the amount of reagent.

no.	Gene	dsRNA	z-score, replicate 1	z-score, replicate 2	z-score, replicate 3	z-score, replicate 4
1	CG30001	DRSC05191	0.16			
2	CR33318	DRSC22949	0.02	0.04		
3	CG7430	DRSC10845	0.41	0.44		
4	Cpr49Ah	DRSC07204	-0.01	-0.03		
5	hfp	DRSC08731	-0.58	-0.61		
6	hfp	DRSC08732	0.37	0.4		
7	hfp	DRSC22408	0.22	0.07		
8	Pih1D1	DRSC02897	0.38	0.39		
9	CSN3	DRSC11859	-1.21	-2.11		
10	Obp69a	DRSC11247	0.27	0.02		
11	CG12177	DRSC19437	0.1	-0.02	0.05	0.26
12	CG12177	DRSC21524	0.26	-0.32		
13	Usp2	DRSC20590	0.3	0.25		
14	Usp2	DRSC20632	0.41	0.56		
15	Usp2	DRSC20633	-0.34	-0.45		
16	CG11509 (retired record)	DRSC17788	0.39	0.47		
17	Cdc6	DRSC10563	-0.2	-0.15		
18	Akt	DRSC14108	0.19	0.28		

Ordered by “z-score, replicate 1” (ascending): 2 of the entries above.
Gene	dsRNA	z-score, replicate 1	z-score, replicate 2	z-score, replicate 3	z-score, replicate 4
CG12177	DRSC19437	0.1	-0.02	0.05	0.26
CG12177	DRSC21524	0.26	-0.32		

Continued.
no.	Gene	dsRNA	z-score, replicate 1	z-score, replicate 2	z-score, replicate 3	z-score, replicate 4
19	Dhpr	DRSC11135	0.03	-0.05		
20	Fdx1	DRSC11167	0.61	0.62		
21	Pkd2	DRSC02962	-0.2	0.36		
22	LManIV	DRSC03222	0.35	0.41		
23	Sec31	DRSC07131	0.09	0.1		
24	CG10366	DRSC02046	-0.03	0.3		
25	CG31224	DRSC15272	0.67	0.64		
26	CG31224	DRSC16290	0.55	0.28		
27	CG14662 + asRNA:CR43478	DRSC12248	0.03	0.38		
28	CG12680	DRSC17871	0.1	0.37		
29	mtrm	DRSC10322	-0.15	-0.28		
30	boil	DRSC17872	0.23	0.33		
31	Snp	DRSC04524	0.08	0.44		
32	Snp	DRSC21538	0.14	0.35		
33	CG10492	DRSC02064	0.64	0.28		
